Patent US12084522B2, “Peptides, combination of peptides, and cell based medicaments for use in immunotherapy against urinary bladder cancer and other cancers” (Immatics Biotechnologies GmbH, priority 2016, dated 2024)
For some assays here: Expression grades refer to the transcript from which the peptide derives; gene names, where given, were looked up from the sequence.

Columns and labels:
[1] = system: primary urinary bladder cancer tissue samples (HLA-A*02-positive) versus panel of normal tissues; assay: Identification and relative quantitation of HLA-presented tumor associated peptides by LC-MS (presentation profiles/scores); set-up: species or system human; key to Peptide Presentation: very highly over-presented on tumors compared to a panel of normal tissues (+++); highly over-presented on tumors compared to a panel of normal tissues (++); over-presented on tumors compared to a panel of normal tissues (+); settings: for Peptide Presentation: presentation score: over-presentation on urinary bladder cancer tumors compared to a panel of normal tissues, label-free LC-MS; for peptide additionally detected on urinary bladder cancers (number of samples/15): 15 urinary bladder cancer samples, FIGS. 1A-1D
[2] = system: mRNA of source genes in urinary bladder cancer versus panel of normal tissues; assay: Expression profiling of genes encoding the peptides (RNAseq); set-up: species or system human; key: very highly over-expressed in tumors compared to a panel of normal tissues (+++); highly over-expressed in tumors compared to a panel of normal tissues (++); over-expressed in tumors compared to a panel of normal tissues (+)

Row | Substance | Peptide Presentation [1] | Gene Expression (expression score of the source gene) [2] | peptide additionally detected on urinary bladder cancers (number of samples/15) [1]
1 | 3: peptide found in TACSTD2 (gene looked up) (YLDEIPPKFSM; listed as Homo sapiens) [compound 3] | +++ | ++ | 
2 | 5: peptide found in ADGRG6 (gene looked up) (IQDPVIFYV; listed as Homo sapiens) [compound 5] |  | + | 
3 | 6: peptide found in PPP1R13L (gene looked up) (SIVDFLITA; listed as Homo sapiens) [compound 6] | +++ | + | 
4 | 21: peptide found in HPGD (gene looked up) (TLIEDDALNGA; listed as Homo sapiens) [compound 21] | +++ | ++ | 
5 | 22: peptide found in SNCG (gene looked up) (SIAKEGVVGA; listed as Homo sapiens) [compound 22] |  | ++ | 
6 | 76: peptide found in SNCG (gene looked up) (AVVSSVNTV; listed as Homo sapiens) [compound 76] |  | ++ | 
7 | 85: peptide found in ITGB4 (gene looked up) (HLLDSKVPSV; listed as Homo sapiens) [compound 85] |  | ++ | 
8 | 109: peptide found in IDH1 (gene looked up) (RLIDDMVAQA; listed as Homo sapiens) [compound 109] |  | + | 
9 | 119 (SLDEKQNLV; listed as Homo sapiens) [compound 119] | +++ |  | 
10 | 120 (IIIPEIQKV; listed as Homo sapiens) [compound 120] | ++ |  | 
11 | 121 (QLQGYLRSV; listed as Homo sapiens) [compound 121] | ++ |  | 
12 | 122 (ILEPSLYTV; listed as Homo sapiens) [compound 122] | +++ |  | 
13 | 123 (NLAGVYSEV; listed as Homo sapiens) [compound 123] | ++ |  | 
14 | 124: peptide found in CHMP4B (gene looked up) (QIDGTLSTI; listed as Homo sapiens) [compound 124] | ++ | + | 
15 | 125 (VLDEGSASV; listed as Homo sapiens) [compound 125] | ++ |  | 
16 | 126 (SLLRVGWSV; listed as Homo sapiens) [compound 126] | ++ |  | 
17 | 129 (YLEPKLTQV; listed as Homo sapiens) [compound 129] | ++ |  | 
18 | 130 (TLTSKLYSL; listed as Homo sapiens) [compound 130] | + |  | 
19 | 132 (YILEGEPGKV; listed as Homo sapiens) [compound 132] | ++ |  | 

Row | Substance | Peptide Presentation [1] | Gene Expression (expression score of the source gene) [2] | peptide additionally detected on urinary bladder cancers (number of samples/15) [1]
20 | 133 (GLDPLGYEIQL; listed as Homo sapiens) [compound 133] | + |  | 
21 | 134 (IVAPGTFEV; listed as Homo sapiens) [compound 134] | + |  | 
22 | 135 (FLLPLIIVL; listed as Homo sapiens) [compound 135] | +++ |  | 
23 | 136 (GLSEPIFQL; listed as Homo sapiens) [compound 136] | +++ |  | 
24 | 137 (ALFPHLLQPVL; listed as Homo sapiens) [compound 137] | ++ |  | 
25 | 138 (YLTNEGIQYL; listed as Homo sapiens) [compound 138] | ++ |  | 
26 | 139: peptide found in ITGA3 (gene looked up) (LLYPTEITV; listed as Homo sapiens) [compound 139] | +++ | ++ | 
27 | 140 (ALLDGRVQL; listed as Homo sapiens) [compound 140] | ++ |  | 
28 | 141 (SMFGAGLTV; listed as Homo sapiens) [compound 141] | + |  | 
29 | 142: peptide found in APOL1 (gene looked up) (FLGENISNFL; listed as Homo sapiens) [compound 142] | +++ | +++ | 
30 | 143 (TLVTGLASV; listed as Homo sapiens) [compound 143] | + |  | 
31 | 146 (YLARIQGFQV; listed as Homo sapiens) [compound 146] | + |  | 
32 | 147 (QMLELITRL; listed as Homo sapiens) [compound 147] | + |  | 
33 | 149: peptide found in ADAM10 (gene looked up) (VLLRVLILL; listed as Homo sapiens) [compound 149] | + | ++ | 
34 | FVFEPPPGV (listed as Homo sapiens) [SEQ ID No. 113] |  |  | 2/15
35 | GLLKAYSIRTA (listed as Homo sapiens) [SEQ ID No. 2] |  |  | 3/15
36 | VLFNIDGQGNHV (listed as Homo sapiens) [SEQ ID No. 110] |  |  | 3/15
37 | YLDPSLNSL (listed as Homo sapiens) [SEQ ID No. 112] |  |  | 3/15
